The values below come from patent US20050214772, “Thio modified aptamer synthetic methods and compositions” (Board Of Regents, The University Of Texas System, published 2005).

Chains of the proteins cited; added tags and fusions are not shown. A line that says so, or that is headed by a name, gives the form on record, which may keep a tag or linker. Residues count along the entry.
UniProt P17676, 266-345: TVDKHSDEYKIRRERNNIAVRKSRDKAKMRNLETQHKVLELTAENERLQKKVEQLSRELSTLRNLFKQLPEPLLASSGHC
NF-kB p65 (RelA) homodimer, one chain, as listed by the source: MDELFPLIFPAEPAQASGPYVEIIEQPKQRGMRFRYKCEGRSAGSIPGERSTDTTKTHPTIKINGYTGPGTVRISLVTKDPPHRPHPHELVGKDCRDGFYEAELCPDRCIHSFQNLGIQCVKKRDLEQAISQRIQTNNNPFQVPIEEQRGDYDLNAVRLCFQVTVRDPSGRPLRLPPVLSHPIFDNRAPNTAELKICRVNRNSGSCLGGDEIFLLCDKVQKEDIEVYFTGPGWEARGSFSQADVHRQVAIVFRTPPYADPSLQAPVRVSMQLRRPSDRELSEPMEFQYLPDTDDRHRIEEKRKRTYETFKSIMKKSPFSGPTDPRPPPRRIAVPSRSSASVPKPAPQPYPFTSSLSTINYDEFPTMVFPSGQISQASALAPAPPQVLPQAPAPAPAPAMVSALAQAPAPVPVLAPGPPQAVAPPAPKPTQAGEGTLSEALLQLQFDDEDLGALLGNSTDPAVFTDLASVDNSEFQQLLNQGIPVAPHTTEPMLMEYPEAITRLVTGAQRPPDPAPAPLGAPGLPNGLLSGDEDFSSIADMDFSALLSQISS

Data set [1] concerns NF-kB p65 (RelA) homodimer. Description: EMSA. The conditions noted are these: purified recombinant protein. For orientation: In EMSA bound probe runs differently from free probe, usually more slowly.
Data set [2] concerns the target NF-IL6 (C/EBPbeta) tryptic core domain bZIP (TCD) (UniProt P17676). Put plainly: FP. The conditions noted are these: monothiophosphate at all dA outside primers, purified recombinant protein, protein details: untagged nonfusion, E. coli.
The next data set addresses T1, NF-kB p50 homodimer (UniProt P19838).
T1 sequence (looked up, limits assumed): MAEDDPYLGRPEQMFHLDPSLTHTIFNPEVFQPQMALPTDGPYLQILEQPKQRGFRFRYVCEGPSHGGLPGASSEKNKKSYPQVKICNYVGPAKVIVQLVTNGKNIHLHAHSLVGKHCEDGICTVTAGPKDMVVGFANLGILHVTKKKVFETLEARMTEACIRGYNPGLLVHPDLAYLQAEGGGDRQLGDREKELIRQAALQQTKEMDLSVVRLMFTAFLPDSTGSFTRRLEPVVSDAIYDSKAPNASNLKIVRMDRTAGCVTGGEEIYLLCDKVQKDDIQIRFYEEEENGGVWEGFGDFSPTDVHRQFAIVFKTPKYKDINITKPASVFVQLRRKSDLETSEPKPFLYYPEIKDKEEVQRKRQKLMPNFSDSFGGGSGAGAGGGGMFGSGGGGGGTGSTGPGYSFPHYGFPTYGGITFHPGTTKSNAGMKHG
Description: EMSA. Particulars: purified recombinant protein.

The target of data set [3] is T2, NF-kB p50-containing dimer in 70Z/3 nuclear extract (UniProt P25799).
T2 sequence (looked up, limits assumed): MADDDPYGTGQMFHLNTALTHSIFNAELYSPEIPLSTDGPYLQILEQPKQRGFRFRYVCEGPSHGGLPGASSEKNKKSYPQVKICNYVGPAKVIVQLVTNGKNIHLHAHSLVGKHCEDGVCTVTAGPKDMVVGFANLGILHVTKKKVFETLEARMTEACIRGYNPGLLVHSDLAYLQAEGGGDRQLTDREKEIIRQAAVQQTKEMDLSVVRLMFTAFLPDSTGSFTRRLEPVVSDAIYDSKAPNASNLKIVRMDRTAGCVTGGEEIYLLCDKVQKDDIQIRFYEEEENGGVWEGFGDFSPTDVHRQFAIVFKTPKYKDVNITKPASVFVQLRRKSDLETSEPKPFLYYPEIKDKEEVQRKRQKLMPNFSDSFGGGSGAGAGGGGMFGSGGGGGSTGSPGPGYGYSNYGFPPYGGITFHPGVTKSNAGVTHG
Put plainly: EMSA. Particulars: unmodified phosphodiester ODN, no NF-kB-specific binding in extracts; protein in an extract.

Data set [4] deals with NF-kB p65 (RelA) homodimer. Put plainly: FP. Particulars: monothiophosphate at all dA outside primers; specificity control, no binding up to 4 uM; purified recombinant protein.
The mark [5] stands for this setting: direct titration of labeled aptamer, monomer concentration at 50% saturation.
[6] abbreviates: single-copy site behaves similarly to CK-1.

For part of these data: No signal at the amounts used counts as a negative. For part of these data: Protein sequences can lack the tags named with them. For part of these data: The comparison behind a weaker result is the experiment's own reference, which may not be listed here. For part of these data: At least one result comes from cells or an extract, where the contact may be indirect. For part of these data: Construct, isoform or probe ends are uncertain for at least one entry.

As to “AGTTGAGGGGACTTTCCCAGGC (double strand) [IgkB promoter element 22-mer]”, in data set [1] (label: 32P), the binding result was “binds”.
Broadly, the Kd is the concentration at which binding is half-saturated. In the case of CCCGTTGTTGTCCCACTCCACG (double strand), the Kd in data set [2] (setting [5]) is 3 nM; in data set [2], < 2 nM.
Regarding “CCAGGAGATTCCAC (double strand) [CK-14 fully monothiolated duplex]”, the binding result in data set [1] (PS all linkages, full monothiolation loses specificity, variant of CK-14 phosphodiester duplex) is “binds”.
Take “CCAGGAGATTCCAC (double strand) [CK-14 phosphodiester duplex]”: the binding result with NF-kB p50 homodimer (setting [6]) was “no binding”; in data set [3], “no binding”; in data set [1] (setting [6]), “binds”.
Take “CCAGGAGATTCCAC (double strand) [Dithioate duplex aptamer 7]”: in data set [1] (phosphorodithioate 3' of T7 and T9 of the complementary strand, variant of CK-14 phosphodiester duplex), the binding result was “binds”.
As to “CCAGGAGATTCCAC (double strand) [Dithioate duplex aptamer 6]”, in data set [1] (phosphorodithioate 3' of T2 and T12 of the complementary strand, variant of CK-14 phosphodiester duplex), the binding result is “binds”.
On to “CCAGGAGATTCCAC (double strand) [Dithioate duplex aptamer 9]”, for which the binding result in data set [1] (phosphorodithioate 3' of T9 and T10 of the top strand, T2 and T12 of the complementary strand, variant of CK-14 phosphodiester duplex) is recorded as “binds”.
Regarding GGGCCCGCTGTACATGCACACG (double strand), the Kd is 5 nM in data set [2] (setting [5]) and < 2 nM in data set [2]. For the same sequence, in data set [4], the binding result is “no binding”.
Take “CCAGGAGATTCCACCCAGGAGATTCCACCCAGGAGATTCCAC (double strand) [CK-1 phosphorothioate duplex]”: the binding result in data set [1] (PS all linkages, variant of CK-1 42-mer phosphodiester duplex) is on record as “binds”.
“CCAGGAGATTCCAC (double strand) [Dithioate duplex aptamer 10]”: the binding result in data set [1] (phosphorodithioate 3' of T9 and T10 of the top strand, T7 and T9 of the complementary strand, variant of CK-14 phosphodiester duplex) is recorded as “binds”.
Turning to “CCAGGAGATTCCAC (double strand) [Dithioate duplex aptamer 11 (XBY-6)]”, the binding result with NF-kB p50 homodimer (phosphorodithioate 3' of T9 and T10 of the top strand, T2, T7, T9 and T12 of the complementary strand, in vitro, recombinant p50 homodimer, variant of CK-14 phosphodiester duplex) is “binds more weakly”; in data set [1] (phosphorodithioate 3' of T9 and T10 of the top strand, T2, T7, T9 and T12 of the complementary strand, variant of CK-14 phosphodiester duplex), “binds”.
On to “GGCCGACCGCACAGCACAACCC (double strand) [Thiophosphate clone 7 (66-mer, variable region given)]”, for which, in data set [2], the Kd is < 2 nM.
In the case of “CCAGGAGATTCCACCCAGGAGATTCCACCCAGGAGATTCCAC (double strand) [CK-1 42-mer phosphodiester duplex]”, the binding result in the data set with NF-kB p50 homodimer is recorded as “no binding”; in data set [1], “binds”.
For the sequence “CCAGGAGATTCCAC (double strand) [Dithioate duplex aptamer 8]”, the binding result in data set [1] (phosphorodithioate 3' of T2, T7, T9 and T12 of the complementary strand, variant of CK-14 phosphodiester duplex) was “binds”.
